Measured values published in patent US8929978B2, “Phototherapy devices and methods comprising optionally substituted terphenyl and quaterphenyl compounds” (Nitto Denko Corporation, priority 2011, dated 2015).
At least one structure is not confirmed: it was looked up by name or label, or the drawing left a doubt.

Test system: person suffering from actinic keratoses
Experiment: Photodynamic treatment of actinic keratoses lesions with red OLED light
Conditions: 16.8% topical cream; excess removed with saline; illuminated with red OLED of Example 2

COC(=O)CCC(=O)CN.Cl [Methyl aminolevulinate]
number or severity of the lesions after treatment: reduced
